# Test results: PubChem BioAssay AID448 (National Center for Advancing Translational Sciences (NCATS), 2006)
# Out of some 65,000 compounds screened, about 45 (0.07%) were called active. This list was built around the results that the source calls inconclusive (neither active nor inactive); the mix of calls is not that of the screen. Calls come from the whole dose curve. Potencies of inconclusive entries are doubtful fits and often do not repeat. Where a SMILES comes first, the peptide text is derived from it. [ ]: non-standard residue; d: D form. The star is where a group is joined. Phe(4-Me) = Cc1ccc(C[CH](N)C(=O)O)cc1; Bz = O=C(c1ccccc1)*
# Test system: Schistosoma mansoni peroxiredoxin 2 (Prx2)
# Assay: Schistosoma Mansoni Peroxiredoxins (Prx2)
# Details: S. mansoni Prx2 activity coupled to TGR/GSH (TGR is thioredoxin glutathione reductase), NADPH fluorescence loss, qHTS
# Method in brief: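 qHTS, coupled TGR/Prx2 format; 15 min compound preincubation at RT; reaction started with H2O2 (2.5 mM aliquot); kinetic NADPH fluorescence decrease, ex 365/em 450 nm.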
# Potency is the fitted concentration of half-maximal effect.
row,SMILES,Potency
1,COc1ccc(-c2cc(N)n(S(=O)(=O)c3c(F)c(F)c(F)c(F)c3F)n2)cc1OC,inconclusive: 7.98 µM [partial curve]
2,Cc1nc2nc(Cc3ccccc3)[nH]n2c(=O)c1Cc1ccccc1,inconclusive: 112 µM [partial curve]
3,O=C(CCS(=O)(=O)c1cccc2nsnc12)N1CCN(Cc2ccc3c(c2)OCO3)CC1,inconclusive: 0.0719 µM [partial modulator]
4,COc1cccc(C(=O)N(Cc2ccc3c(c2)OCO3)Cc2nc3ccccc3c(=O)[nH]2)c1,inconclusive: 58.4 µM [single point]
5,CC(=O)Nc1ccc(NC(=O)CNS(=O)(=O)c2ccc(C)cc2)cc1,inconclusive: 66.1 µM [single point]
6,COc1ccc(OC)c(C2C(C(C)=O)=C(O)C(=O)N2c2ccc(O)cc2)c1 (stereo not given),inconclusive: 66.9 µM [single point]
7,Cc1csc(Sc2nc3c(c(=O)[nH]c(=O)n3C)n2CCCc2ccccc2)n1,inactive: > 57 µM
8,C=CC[C@H](N)C(=O)O,inactive: > 57 µM
9,CCOC(=O)C1CCN(CC(O)COc2ccc(C(C)(C)CC)cc2)CC1 (stereo not given),inconclusive: 47 µM [partial curve]
10,CC[C@@H]1CN2CCc3cc(OC)c(OC)cc3[C@H]2C[C@@H]1C[C@@H]1NCCc2cc(OC)c(OC)cc21,inactive: > 57 µM
11,COc1ccccc1C(=O)N(Cc1nc(-c2ccc(Cl)cc2)no1)C(C)C,inactive: > 57 µM
12,C[N+]1(C)CCC[C@H]1C(=O)[O-],inactive: > 57 µM
13,C=CCN1C[C@H](C)N([C@@H](c2ccccc2)c2ccc(C(=O)N(CC)CC)cc2)C[C@H]1C,inconclusive: 67.9 µM [single point]
14,Cc1sc(NC(=O)c2ccco2)nc1-c1ccc2c(c1)CC(C)N2C(=O)C1CC1 (stereo not given),inactive: > 57 µM
15,O=C(CS(=O)(=O)Cc1ccccc1)NCc1ccc2c(c1)OCO2,inconclusive: 67.2 µM [single point]
16,COc1ccc(-c2cc(C(=O)NCc3ccccc3)no2)cc1OC,inconclusive: 51.7 µM [single point]
17,O=C(c1cc(C(F)(F)F)cc(C(F)(F)F)c1)N1CCC2(CC1)CN(c1ccccc1)C2,inconclusive: 81.8 µM [single point]
18,CCOc1ccc(-c2cc(CCCC(=O)Nc3cc(OC)ccc3OC)no2)cc1,inconclusive: 86.2 µM [single point]
19,COc1nc(Cl)nc(Cl)c1Cl (tested in a mixture with another compound),inactive: > 57 µM
20,Cc1cccc(CNc2nc(-c3c(C)noc3C)nc3ccccc23)c1,inconclusive: 59 µM [single point]
21,CC(C)Oc1cccc(C(=O)Nc2ccc(CN3CCOCC3)cc2)c1,inconclusive: 83.3 µM [partial curve]
22,CCc1ccc(-n2c(O)cnc2Nc2nc(C)cc(C)n2)cc1,inactive: > 57 µM
23,CSc1ccccc1NC(=O)c1onc(C)c1Cl,inconclusive: 76.6 µM [partial curve]
24,Nc1nnc(C(=O)c2ccccc2N)s1,inconclusive: 55.9 µM [single point]
25,Cn1c(Cn2c(=O)sc3ccccc32)nnc1SCC(=O)N1CCOCC1,inactive: > 57 µM

# Three compounds picked at random from the list so far, as already listed:
row,SMILES,Potency
12,C[N+]1(C)CCC[C@H]1C(=O)[O-],inactive: > 57 µM
20,Cc1cccc(CNc2nc(-c3c(C)noc3C)nc3ccccc23)c1,inconclusive: 59 µM [single point]
11,COc1ccccc1C(=O)N(Cc1nc(-c2ccc(Cl)cc2)no1)C(C)C,inactive: > 57 µM

# (list continues)

row,SMILES,Potency
1,O=c1c(-c2ccc(F)c(F)c2)nc2cncnc2n1C1CC1,inactive: > 57 µM
2,COc1cccc(Nc2ncc3nc(CCc4ccccc4)c(=O)n(Cc4cccs4)c3n2)c1,inactive: > 57 µM
3,Cc1c(C)c2c(c(C)c1O)CC[C@@](C)(CN1CCN(c3cc(N4CCCC4)nc(N4CCCC4)n3)CC1)O2,inactive: > 25.6 µM
4,CN(C)c1cc2c(Nc3ccc4c(cnn4Cc4ccccc4)c3)ncnc2cn1,inactive: > 57 µM
5,CCOC(=O)c1c(-c2ccc(C)o2)csc1N,inconclusive: 61.5 µM [single point]
6,Cc1sc2ccccc2[n+]1CCC(=O)O,inactive: > 57 µM
7,N#Cc1nc(-c2ccccc2F)oc1NCCN1CCOCC1,inactive: > 57 µM
8,CCOc1ccc(C2CC(c3ccccc3C)n3ncnc3N2)cc1 (stereo not given),inconclusive: 156 µM [partial curve]
9,Cc1ccc(CC(NC(=O)c2ccccc2)C(=O)N2CCCC2C(=O)O)cc1 (stereo not given) (Bz-[Phe(4-Me)]-Pro-OH; configuration not given here),inconclusive: 135 µM [partial curve]
10,C[C@@]1(C(NS(=O)(=O)c2cccc3cccnc23)c2ccc(-c3ccccc3)cc2)C[C@H]1C1CCCCC1 (stereo not given in full),inconclusive: 51.5 µM [partial curve]
11,C=CCn1c(SCc2ccccc2C#N)nnc1-c1cc(Br)ccc1O,inconclusive: 63.1 µM [single point]
12,CCN(CC)CCCN1C(=O)C(O)=C(C(C)=O)C1c1ccc(OC)cc1OC (stereo not given),inactive: > 57 µM
13,O=C(Oc1cc2oc(=O)c3c(c2cc1Cl)CCCC3)c1ccco1,active: 18.7 µM
14,Cc1ccc(S(=O)(=O)N(CCO)Cc2cc3ccc(C)c(C)c3[nH]c2=O)cc1,inconclusive: 77.6 µM [partial curve]
15,COCC(=O)N1CCC2(CCCN(c3ccncc3)C2)CC1,inactive: > 57 µM
16,CN[C@H]1[C@@H](O)[C@@H](NC)[C@@H]2O[C@@]3(O)C(=O)C[C@@H](C)O[C@H]3O[C@H]2[C@H]1O,inactive: > 57 µM
17,CCOC(=O)N1CCN(c2c(Nc3cc(C)[nH]n3)c(=O)c2=O)CC1,inconclusive: 80.6 µM [single point]
18,COC(=O)N1CCC2(CCCN(c3ccncc3)C2)CC1,inactive: > 57 µM
19,CCN(CC)S(=O)(=O)c1ccc2[nH]cc(C(=O)NCCC3=CCCCC3)c(=O)c2c1,inconclusive: 122 µM [single point]
20,CCSc1nnc(NC(=O)c2ccc(Br)s2)s1,inactive: > 57 µM
21,O=C(Nc1cccc(Cl)c1)c1cnn2cccnc12,inconclusive: 56.5 µM [single point]
22,Cc1noc(NS(=O)(=O)c2ccc(NC(=O)CSc3ncccn3)cc2)c1C,active: 6.8 µM
23,C=CS(=O)(=O)c1ccc(Oc2ccc(S(=O)(=O)C=C)cc2)cc1,inconclusive: 21.7 µM [partial curve]
24,CC(=O)Oc1ccc2cc(-c3nc4ccccc4n3C)c(=O)oc2c1,active: 17.8 µM
25,O=C(CC1CCCC1)Nc1nc2ccccc2[nH]1,inconclusive: 77.9 µM [single point]

row,SMILES,Potency
1,COc1ccc2c(CSc3nc4nc(C)cc(C)n4n3)cc(=O)oc2c1,inconclusive: 174 µM [partial curve]
2,CC1=NN=C(c2ccc(N)cc2)c2cc3c(cc2C1)OCO3,inconclusive: 23.1 µM [partial curve]
3,O=[As](O)(O)c1ccc(N=Nc2ccc([As](=O)(O)O)cc2)cc1,inconclusive: 85.8 µM [single point]
4,O=C(Oc1ccc2c3c(c(=O)oc2c1)CCCC3)c1ccco1,active: 55.5 µM
5,O=C(O)c1nccnc1C(=O)Nc1ccc(Br)cn1,inactive: > 57 µM
6,NC(=O)C/C=C\CC(N)=O,inactive: > 57 µM
7,Cc1ccccc1NS(=O)(=O)c1ccc(C2CNC(=O)C2)cc1 (stereo not given),inactive: > 57 µM
8,COC[C@H]1OC(=O)c2coc3c2[C@@]1(C)C1=C(C3=O)[C@H]2CCC(=O)[C@@]2(C)C[C@H]1OC(C)=O,inactive: > 57 µM
9,c1ccc2c[n+](Cc3ccnc4ccccc34)ccc2c1,inactive: > 57 µM
10,CCOC(=O)N1CCN(S(=O)(=O)c2cc(OCC)ccc2OCC)CC1,inconclusive: 48.9 µM [partial curve]
11,Cc1ccc(C)c(NC(=O)c2nnn(Cc3ccccc3)c2N)c1,inactive: > 57 µM
12,COc1ccc(Br)cc1CNC(=O)CCc1nc(-c2ccc(C)cc2)no1,inconclusive: 56.4 µM [single point]
13,Fc1ccc(C2CC(c3ccccc3)Nc3ncnn32)cc1 (stereo not given),inactive: > 57 µM
14,Cn1cccc1C(=O)N1CCC2(CCCN(c3ccc(-c4ccccc4)cc3)C2)CC1,inactive: > 57 µM
15,Brc1ccccc1-c1nnc(CSc2nnnn2-c2ccccc2)o1,inconclusive: 8.89 µM [partial modulator]
16,O=c1[nH]c2ccccc2n1CCCSCCCn1c(=O)[nH]c2ccccc21,inactive: > 57 µM
17,O=C(O)c1ccncc1.O=C(O)c1ccncc1.[Cl][Pt]([Cl])([Cl])[Cl],inconclusive: 52.3 µM [single point]
18,Cc1noc(NS(=O)(=O)c2ccc(NC(=O)CSc3nc4ccccc4[nH]3)cc2)c1C,inconclusive: 69.5 µM [partial curve]
19,O=C(Nc1cccc(-c2nnc(-c3ccccc3)o2)c1)c1ccc(Br)o1,inconclusive: 108 µM [single point]
20,CCCCn1c2c(c(=O)n(C)c1=O)C(CC(=O)OCC(=O)Nc1cccc(C(F)(F)F)c1)C(=O)N2 (stereo not given),inconclusive: 76.1 µM [partial curve]
21,CCN(CC)S(=O)(=O)c1ccc(Oc2cccc(C(C)=O)c2)nc1,inconclusive: 83.4 µM [single point]
22,O=c1c2c3c(sc2n(CCN2CCOCC2)c(=O)n1Cc1ccco1)CCCCC3,inconclusive: 103 µM [partial curve]
23,COc1ccc(Nc2nc(N3CCCC3)nc3ccccc23)c(OC)c1,inactive: > 57 µM
24,O=c1c(-c2ccccc2)nc2cnc(N3CCOCC3)nc2n1Cc1ccc(F)cc1,inactive: > 57 µM
25,COC(=O)[C@H](Cc1ccccc1)NC(=O)NCc1ccc(S(N)(=O)=O)cc1,inactive: > 57 µM
